Earlier results in US7622447B2, “Use of glutathione synthesis stimulating compounds in reducing insulin resistance” (DiaMedica Inc., priority 2002, dated 2009).

Test system: cats
Settings: arterial-venous glucose response to bolus insulin after atropine; cited from earlier work

Compound: CN1[C@@H]2CC[C@H]1C[C@@H](OC(=O)C(CO)c1ccccc1)C2 (stereo partly shown) [atropine]
- glucose uptake across the hindlimbs (skeletal muscle): decreased
